# Source: the supplement of paper PMC5949888
# Most values lie at the floor of the assay. Slopes are relative: functional sequences can read slightly below zero.
# Tested on: Saccharomyces cerevisiae PS128 hsf1 delta, HSF1(1-493) fusion
# Test: growth estimate (transactivation domain function in HSF1 fusion, heat-shock survival) (a.u. (slope of normalised read count over time)); higher = stronger growth at 37°C, i.e. more transactivation activity
# Details: library: random library
# Experimental: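 Random 60-nt DNA library encoding peptides of up to 20 aa, fused to the C-terminus of yeast HSF1 residues 1-493 (C-terminal TAD deleted) and expressed from the native HSF1 promoter on a CEN plasmid in hsf1-deleted S. cerevisiae PS128. Cells were selected at 37°C on -trp 5-FOA plates for 0, 2, 4, 6 and 8 days and amplicons were sequenced. Growth estimate is the slope of a robust linear fit of total-sum-normalised read counts (normalised to the first time point) over time, using at least 2 replicates. Sequences are classed functional (TAD activity) above a threshold of -0.13, set from stop-codon control sequences.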
row,Substance,growth estimate
1,CRIPRVPVIVLW,< -0.25
2,CRIQGSPLPRRSLIVNTLCA,< -0.25
3,CRISTGSHPQWVPNSYNRTV,< -0.25
4,CRITAMDGGTWELRYGIVSH,< -0.25
5,CRIVTYIRQYLC,< -0.25
6,CRKVNRYGFRGFK,< -0.25
7,CRLFSACSTEVELYALAIR,< -0.25
8,CRLKPESTCSATAAG,< -0.25
9,CRLWPFALE,< -0.25
10,CRPGRPRPSETKIGSPRFLW,< -0.25
11,CRQFRANHREKRLLQKLRHD,< -0.25
12,CRQNGAVLTTNSNGVELPQS,< -0.25
13,CRQSLSRVFAGPVL,< -0.25
14,CRRRSSLNYRHVRSHQPSTS,< -0.25
15,CRRWRSSAATV,< -0.25
16,CRSFSDRVRCGSGLR,-0.25
17,CRSVKFRNR,< -0.25
18,CRSVKRRTNIMWIARVFM,< -0.25
19,CRTDPPQTSCYVG,< -0.25
20,CRTFCSRLVRCRMRHMVQSM,< -0.25
21,CRVGVIRRSGRVDVARDSVS,< -0.25
22,CRVL,< -0.25
23,CRY,< -0.25
24,CRYGWPAFPSVEQVPDGLQA,< -0.25

row,Substance,growth estimate
1,CSADRVGNVRREAM,< -0.25
2,CSCNYMSHELARPGVRTPST,< -0.25
3,CSCSPGQLNVIGPRRCIAMP,< -0.25
4,CSCVGIPNGLGGNFVLPTSR,< -0.25
5,CSDFYNSL,< -0.25
6,CSELAGATSGKSDDL,< -0.25
7,CSESREKISTVRRSWGSRWQ,< -0.25
8,CSFGRRYRGAVDCFSQGVRL,< -0.25
9,CSFSCATTRPTLVEEVNGTG,< -0.25
10,CSFWTLCYTHLS,< -0.25
11,CSGGGRLRLL,< -0.25
12,CSGGVIQIAPH,< -0.25
13,CSGRYG,< -0.25
14,CSGTGTNWVVSTSWPAGQW,< -0.25
15,CSIPYQELSCGGR,< -0.25
16,CSKNAIHSAAVDVKIHL,< -0.25
17,CSLCGNGPPANACGTRGGLA,< -0.25
18,CSLDRSQDELNPLVS,< -0.25
19,CSLSNDDVRRRSLLFSWGQR,< -0.25
20,CSLTFISGNVNVLSIEKREP,< -0.25
21,CSMLVDVVHGRTDRSSVI,< -0.25
22,CSPFCAQSRGTRAKFEGLCA,< -0.25
23,CSQS,< -0.25
24,CSRDAH,< -0.25

row,Substance,growth estimate
1,CSRLQRRLRYMRVCKSWVAL,< -0.25
2,CSRRDGSASPPRAHRLDNRM,-0.204
3,CSRSGGWMSGTFAPWGKSVG,< -0.25
4,CSSERLGVQRGYIYPLLVVL,< -0.25
5,CSSESVVCQEPSATDPIRHP,< -0.25
6,CSSLRAGASGLPPVLARSRQ,-0.2
7,CSSSERIEAG,< -0.25
8,CSSWLGGTGHRLSLCRVAFG,< -0.25
9,CSTDL,< -0.25
10,CSVVGVWNGSLTTNQIRVIW,< -0.25
11,CSWNRV,< -0.25
12,CSYLDWKRN,< -0.25
13,CSYLRPVGLRPETHVRVQIS,< -0.25
14,CTAGDLVRIAVQFVPPLLSL,< -0.25
15,CTE,< -0.25
16,CTGKVEPCLREASRLPTVCA,< -0.25
17,CTGLNLLHLARSQRGSRDGL,< -0.25
18,CTGLTRVVFVYVRRPETSA,< -0.25
19,CTKREGNDAGLSRPRWPCYG,< -0.25
20,CTKSEHLESGSK,< -0.25
21,CTKVS,< -0.25
22,CTL,< -0.25
23,CTLCDLGRMHL,< -0.25
24,CTMCQ,< -0.25

row,Substance,growth estimate
1,CTMK,< -0.25
2,CTPKIEAFAGSKNAQSVVWT,< -0.25
3,CTPLVPTVP,< -0.25
4,CTPPILGSVACKVGSLQLRG,< -0.25
5,CTPTGLISVKPTQAW,< -0.25
6,CTSIGSLSHQHFRCRWT,< -0.25
7,CTSLGPRLLMQGLRRPVHAV,< -0.25
8,CTSS,< -0.25
9,CTSSRKTYAIHYSHSFPDCV,< -0.25
10,CTTL,< -0.25
11,CTTRVR,< -0.25
12,CTVFPR,< -0.25
13,CTVIKLYHHF,< -0.25
14,CTVTCCAHAQ,< -0.25
15,CTYASIRAISHGRPEGILSD,< -0.25
16,CVAADTSRGKNVRSGAKSCS,< -0.25
17,CVCRTACRSSTAVIGRALAF,< -0.25
18,CVCTIHPLVWLSFPFCLDLK,< -0.25
19,CVDACGATGIWVRAVG,< -0.25
20,CVFDFSSSRQHFRTGIFASS,< -0.25
21,CVGPRMFDFVLSCAASFALA,< -0.25
22,CVGQAGRHGKLRNTRRGGSC,< -0.25
23,CVIAGQAST,< -0.25
24,CVILQ,< -0.25

# Quoted at random: two entries already listed.
row,Substance,growth estimate
16,CVAADTSRGKNVRSGAKSCS,< -0.25
13,CTVIKLYHHF,< -0.25

# The results go on.

row,Substance,growth estimate
1,CVIRPSDVLGELQNCSVHLR,-0.229
2,CVKKFCLNLGHGGVPPIPLG,< -0.25
3,CVLNYLLGGLAFSSSV,-0.0485
4,CVLRWQSLIIVDGFGDPQPR,< -0.25
5,CVLWFSEQTMRYGAILLDDG,< -0.25
6,CVNLVRGHRRPLWQICTFNL,< -0.25
7,CVRHGC,< -0.25
8,CVSFFNLFNQC,< -0.25
9,CVSLAYFEVFMRHPWHGVPD,< -0.25
10,CVSLEFGRLHLQQQFDLWSS,-0.0287
11,CVSRRQP,< -0.25
12,CVSRSKVQ,-0.226
13,CVSSYGYRGQVSLPGMIQGI,< -0.25
14,CVSWLPVVNVLSLSSYHTGA,< -0.25
15,CVVTKQKYDSYTSQSNW,< -0.25
16,CVWFGAPELGASHRQHRSQT,< -0.25
17,CVYLPFGATIMPSWKRGARG,< -0.25
18,CWCRI,< -0.25
19,CWESPCA,< -0.25
20,CWGKTSGSLK,< -0.25
21,CWPPASGVIDGFFSKVIFVG,< -0.25
22,CWPSATTYSPGWAKGLTRRG,< -0.25
23,CWPSGRKNSNPQLGTSVLTG,< -0.25
24,CWSLDYEKMSLRFVIRLTDI,< -0.25

# Looked up above:
# growth estimate with CVNLVRGHRRPLWQICTFNL is entered as < -0.25
# growth estimate with CSIPYQELSCGGR is entered as < -0.25
# growth estimate with CVSRSKVQ is entered as -0.226
# growth estimate with CRLWPFALE is entered as < -0.25
# growth estimate with CTTL is entered as < -0.25
# growth estimate with CWGKTSGSLK is entered as < -0.25

# (next part)

row,Substance,growth estimate
1,CWVCDIRAYCRLVAFPKLKV,< -0.25
2,CWVFIT,< -0.25
3,CWYKLRRGSPSSPPAQCSAH,< -0.25
4,CYFAATRTSI,< -0.25
5,CYGHGPLEVFGGDL,-0.248
6,CYGVLQRRSIAYAES,< -0.25
7,CYIVGYGVKGGDLVCHALKS,< -0.25
8,CYKRQEMTMPCVLPCPGTTR,< -0.25
9,CYNGCSGLLHNWPNRSRAFV,< -0.25
10,CYQHVGRVGVRAGRAREST,< -0.25
11,CYSIQDTLLPTPPGCGQVSG,< -0.25
12,CYSRGARPQFFGAKCARDGI,< -0.25
13,CYSVRAWRHEPRTE,< -0.25
14,CYTYFSVPALMSRPLTEQLS,< -0.25
15,CYVGLIHRHRPIRGGMDLPG,< -0.25
16,Child,< -0.25
17,DAEEHLPFLSLMDGKLAIQ,< -0.25
18,DAFLDTSTECWNPNGNKLGG,< -0.25
19,DAFSLAQSARGG,< -0.25
20,DAHAVRHRSSFHHGEFTSQK,< -0.25
21,DAHGLPR,< -0.25
22,DAHGSLGEKGRKIIDTVMGY,< -0.25
23,DARAPGLVLI,< -0.25
24,DARGPTSNLTGEGDKTGLFG,< -0.25

row,Substance,growth estimate
1,DARLSSRWAYV,< -0.25
2,DARRIALRIFLKG,< -0.25
3,DARYWHTLR,< -0.25
4,DASCYTLVVIAYT,< -0.25
5,DATRRCRGGYGRHMSAKKLE,-0.206
6,DAVISAVSIADAAS,< -0.25
7,DAWALGNLVLHTVALLCNMH,< -0.25
8,DAYIGMVLYAL,< -0.25
9,DAYTHEKDLSRAGNP,< -0.25
10,DCCDQ,< -0.25
11,DCGCKIRKYVCVQDEMDQRA,< -0.25
12,DCHVGRFVK,< -0.25
13,DCKNRIRTGRNKACVVRSHH,< -0.25
14,DCNVPTLRRSQTMTRTTEPL,< -0.25
15,DCPRL,< -0.25
16,DCTLPEGLVEDERVRH,< -0.25
17,DCVG,< -0.25
18,DDFT,< -0.25
19,DDMRT,< -0.25
20,DDPSNLAQRLGVQY,< -0.25
21,DDRLVGWK,< -0.25
22,DDTAGL,< -0.25
23,DDWLWVHQGAGGRDNIYSYH,< -0.25
24,DEAANSNVCGPSSGGLHGSA,< -0.25

row,Substance,growth estimate
1,DEDVR,< -0.25
2,DEGYSGFRTSKCAISTLVQQ,0.159
3,DELAKLVLPGVHRQGSRRAI,< -0.25
4,DELLRTGRH,< -0.25
5,DERHLYRITRGSNNRITVLI,< -0.25
6,DESQEYVTCCHTLGKVLREW,-0.25
7,DEVSYNHRQFKVRMLAQGRR,< -0.25
8,DFARPTEVIQLLSRWLTGHG,< -0.25
9,DFCVVEGFGPTIILGAARGL,< -0.25
10,DFGRDRGKPFIRSIASPFSN,< -0.25
11,DFGWWTGWAWQSRHHSEAEW,-0.122
12,DFLTGFCRSA,< -0.25
13,DFNRPFSRECVIDIFIIPHY,< -0.25
14,DFPIARDSECIRFAFCFSVC,< -0.25
15,DFRRSL,< -0.25
16,DFSRLPWAHGRNGGHTYTPQ,< -0.25
17,DFTLERLFVQVIRC,< -0.25
18,DFYDTKSLLIPLILKDRLLS,< -0.25
19,DGAAKAGSCQHVMPFATLIR,< -0.25
20,DGAIWFGNRLPLESHRVIRV,< -0.25
